Test: Anti-His western blot of xylose isomerase constructs expressed in S. cerevisiae
Design: species or system Saccharomyces cerevisiae
Conditions: His-tagged constructs in p426GPD, S. cerevisiae BY4742

B1: Ruminococcus xylose isomerase: native xylose isomerase from Ruminococcus flavefaciens strain 17, SEQ ID NO: 31 (protein, listed as Ruminococcus flavefaciens)
chain: MEFFSNIGKIQYQGPKSTDPLSFKYYNPEEVINGKTMREHLKFALSWWHTMGGDGTDMFGCGTTDKTWGQSDPAARAKAKVDAAFEIMDKLSIDYYCFHDRDLSPEYGSLKATNDQLDIVTDYIKEKQGDKFKCLWGTAKCFDHPRFMHGAGTSPSADVFAFSAAQIKKALESTVKLGGNGYVFWGGREGYETLLNTNMGLELDNMARLMKMAVEYGRSIGFKGDFYIEPKPKEPTKHQYDFDTATVLGFLRKYGLDKDFKMNIEANHATLAQHTFQHELRVARDNGVFGSIDANQGDVLLGWDTDQFPTNIYDTTMCMYEVIKAGGFTNGGLNFDAKARRGSFTPEDIFYSYIAGMDAFALGFRAALKLIEDGRIDKFVADRYASWNTGIGADIIAGKADFASLEKYALEKGEVTASLSSGRQEMLESIVNNVLFSL
expression of xylose isomerase in yeast cells (western): expressed in both the soluble and insoluble fractions
expression of xylose isomerase in yeast cells (western) (listed as wild type R. flavefaciens xylose isomerase): expressed in the soluble fraction
